Drawing on PMC7037359, this text covers binding for one sequence.

Amino acid sequences for entries named in this document (tags omitted). Residues count along the entry.
UniProt Q13443, residues 29-819: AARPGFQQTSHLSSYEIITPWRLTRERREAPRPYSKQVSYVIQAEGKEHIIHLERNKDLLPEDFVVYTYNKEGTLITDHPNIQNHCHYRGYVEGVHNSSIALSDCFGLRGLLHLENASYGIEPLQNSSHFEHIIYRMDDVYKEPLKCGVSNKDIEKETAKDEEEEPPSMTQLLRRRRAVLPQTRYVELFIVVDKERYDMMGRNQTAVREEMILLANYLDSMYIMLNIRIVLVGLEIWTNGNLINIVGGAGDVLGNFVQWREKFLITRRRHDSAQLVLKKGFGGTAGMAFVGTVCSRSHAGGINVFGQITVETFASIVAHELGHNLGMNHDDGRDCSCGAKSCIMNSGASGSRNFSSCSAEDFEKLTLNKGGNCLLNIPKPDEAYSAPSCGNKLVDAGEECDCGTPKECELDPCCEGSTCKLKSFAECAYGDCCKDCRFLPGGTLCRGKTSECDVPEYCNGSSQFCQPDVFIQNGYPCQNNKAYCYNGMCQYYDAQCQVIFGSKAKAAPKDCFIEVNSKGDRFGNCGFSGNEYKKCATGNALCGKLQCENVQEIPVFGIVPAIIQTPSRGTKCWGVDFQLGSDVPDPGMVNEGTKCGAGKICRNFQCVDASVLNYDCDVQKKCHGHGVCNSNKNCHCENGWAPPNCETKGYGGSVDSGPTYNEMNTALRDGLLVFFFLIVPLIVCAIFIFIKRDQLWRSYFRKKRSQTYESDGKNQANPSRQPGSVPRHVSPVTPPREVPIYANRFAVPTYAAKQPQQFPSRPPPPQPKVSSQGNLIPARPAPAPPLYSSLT

For the test, the target named is β-amyloid precursor protein carrying Swedish mutation (UniProt P05067). Put plainly: co-IP; lysate of APPsw-transfected HeLa cells incubated without or with 1 or 5 μM E144 for 1 h at 37 °C; 300 μg total protein incubated with 2 μL APP antibody (6E10) for 2 h, washed 3 times with PBS; Western blot with ADAM9, ADAM10, ADAM17 and APP antibodies. In general terms: In western blotting, separated proteins are transferred to a membrane and probed.

Results are given in words; binding and its absence hold for the method and conditions named. Binding seen in cells or lysates may run through a third protein. Binding calls can cover weak binding; strength is not graded here.

On to “A Disintegrin and Metalloproteinase 9 (from UniProt Q13443 29-819) (enzyme)”, for which the binding entry is reported as “binds”.
